Source: paper PMC10653812
No constants are given. Whether binding was seen depends on the method and setting. In cells and extracts the contact can be indirect. Some results given as binding are weak or reduced against the parent protein; the word gives no strength.

Protein sequences, listed by entry. Tags and fused reporters are not part of them.
UniProt B8NLZ3: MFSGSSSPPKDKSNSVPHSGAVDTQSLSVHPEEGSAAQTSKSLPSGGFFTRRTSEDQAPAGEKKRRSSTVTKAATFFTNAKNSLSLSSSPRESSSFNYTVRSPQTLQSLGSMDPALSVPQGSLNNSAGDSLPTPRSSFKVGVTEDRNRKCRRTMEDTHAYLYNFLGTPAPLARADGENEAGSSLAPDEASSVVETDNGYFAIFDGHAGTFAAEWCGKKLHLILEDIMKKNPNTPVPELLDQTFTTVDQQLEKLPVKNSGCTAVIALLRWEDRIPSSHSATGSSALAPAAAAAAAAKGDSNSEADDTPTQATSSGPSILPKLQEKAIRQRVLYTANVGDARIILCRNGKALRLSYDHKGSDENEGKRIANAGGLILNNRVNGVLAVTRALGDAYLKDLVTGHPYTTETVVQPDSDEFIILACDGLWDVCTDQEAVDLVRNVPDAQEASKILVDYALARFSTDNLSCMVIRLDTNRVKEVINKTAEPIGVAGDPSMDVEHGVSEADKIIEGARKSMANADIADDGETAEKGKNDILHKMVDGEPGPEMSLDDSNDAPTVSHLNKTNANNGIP
UniProt A0A7G5KET3: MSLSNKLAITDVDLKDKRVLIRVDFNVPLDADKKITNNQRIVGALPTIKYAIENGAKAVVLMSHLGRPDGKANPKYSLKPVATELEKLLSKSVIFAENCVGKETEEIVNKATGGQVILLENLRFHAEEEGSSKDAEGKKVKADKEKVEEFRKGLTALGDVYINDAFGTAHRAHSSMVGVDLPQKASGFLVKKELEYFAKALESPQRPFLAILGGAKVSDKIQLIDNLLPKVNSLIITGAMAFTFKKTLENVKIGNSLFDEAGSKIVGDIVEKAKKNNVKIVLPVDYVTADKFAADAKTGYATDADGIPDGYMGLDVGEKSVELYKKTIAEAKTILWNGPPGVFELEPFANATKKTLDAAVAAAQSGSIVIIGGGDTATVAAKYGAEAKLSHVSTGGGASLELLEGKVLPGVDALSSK

Key:
[1] = target: Ptc2::eGFP (Aspergillus flavus); test: co-IP
[2] = target: Ptc1::eGFP (Aspergillus flavus) (UniProt B8NLZ3); test: co-IP

phosphoglycerate kinase 1 (PGK1) (from UniProt A0A7G5KET3 1-417) (enzyme)
binding [1]: binds | binding [2]: binds
